Results are given in words; binding and its absence hold for the method and conditions named. Some results given as binding are weak or reduced against the parent protein; the word gives no strength. Where a sequence is shown, tags or fusion partners need not be part of it.
Target: T1, bone morphogenetic protein-1 (human) (UniProt P13497)
T1 sequence: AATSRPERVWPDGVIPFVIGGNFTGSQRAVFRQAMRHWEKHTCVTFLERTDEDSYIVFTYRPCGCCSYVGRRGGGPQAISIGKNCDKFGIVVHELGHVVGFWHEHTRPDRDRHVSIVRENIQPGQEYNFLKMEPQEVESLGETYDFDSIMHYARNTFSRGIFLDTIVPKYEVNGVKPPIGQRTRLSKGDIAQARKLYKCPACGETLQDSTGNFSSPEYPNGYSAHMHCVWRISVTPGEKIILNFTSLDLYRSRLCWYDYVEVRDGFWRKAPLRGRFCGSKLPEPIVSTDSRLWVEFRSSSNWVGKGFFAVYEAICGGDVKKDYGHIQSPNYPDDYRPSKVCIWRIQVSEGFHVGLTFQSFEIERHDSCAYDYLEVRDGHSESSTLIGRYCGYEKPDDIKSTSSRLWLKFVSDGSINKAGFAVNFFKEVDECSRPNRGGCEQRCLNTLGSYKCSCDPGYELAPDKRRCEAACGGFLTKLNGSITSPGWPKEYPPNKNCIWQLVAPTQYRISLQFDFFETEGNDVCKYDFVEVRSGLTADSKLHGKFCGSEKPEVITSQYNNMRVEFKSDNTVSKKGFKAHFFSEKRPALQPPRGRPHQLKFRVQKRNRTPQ
Test: SPR; BMP-1 immobilised by amine coupling on CM5 (974, 1302 or 1492 RU); 10 mM HEPES pH 7.4, 0.15 M NaCl, 5 mM CaCl2, 0.05% P20, 25 °C; PCPE-2 1.56-100 nM with steady-state fit (heterogeneous ligand model for kinetics), 50 nM for comparisons; both purified

B1: procollagen C-proteinase enhancer 1, native form with no His tag (protein, UniProt Q15113 26-449)
chain: QTPNYTRPVFLCGGDVKGESGYVASEGFPNLYPPNKECIWTITVPEGQTVSLSFRVFDLELHPACRYDALEVFAGSGTSGQRLGRFCGTFRPAPLVAPGNQVTLRMTTDEGTGGRGFLLWYSGRATSGTEHQFCGGRLEKAQGTLTTPNWPESDYPPGISCSWHIIAPPDQVIALTFEKFDLEPDTYCRYDSVSVFNGAVSDDSRRLGKFCGDAVPGSISSEGNELLVQFVSDLSVTADGFSASYKTLPRGTAKEGQGPGPKRGTEPKVKLPPKSQPPEKTEESPSAPDAPTCPKQCRRTGTLQSNFCASSLVVTATVKSMVREPGEGLAVTVSLIGAYKTGGLDLPSPPTGASLKFYVPCKQCPPMKKGVSYLLMGQVEENRGPVLPPESFVVLHRPNQDQILTNLSKRKCPSQPVRAAASQD
Which binding does the source give for B1 here?
Its binding is “binds weakly”.

Reference: publication PMC10696041
